According to paper doi:10.1101/2022.05.03.490397:
These are yes or no findings as the source states them, for the method shown. Binding seen in cells or lysates may run through a third protein.

B1: ThsB (TIR-domain protein) of the Bacillus cereus MSX-D12 Thoeris system (protein, UniProt J8G8J6 1-192)
chain: MAKRVFFSFHYQDVIDFRVNVVRNHWVTKLNQSAAGVFDASLWEDAKKTSDIALKRLINGGLNNTSVTCVLIGSQTFNRRWVRYEIMKSIEKGNKIIGIHINAFKDKYGNIKSKGPNPFDYLGYQYSSDGKQLHLYEWTGGKWEEYKDLAPYRVNQIAPESLRGKFYSLSSVYRVYDWVADDGYNKFSSWVN
B2: ThsA of the Bacillus cereus MSX-D12 Thoeris system (enzyme, UniProt J8G6Z1 1-476)
chain: MKMNPIVELFIKDFTKEVMEENAAIFAGAGLSMSVGYVSWAKLLEPIAQEIGLDVNKENDLVSLAQYYCNENQGNRGRINQIILDEFSRKVDLTENHKILARLPIHTYWTTNYDRLIEKALEEENKIADVKYTVKQLATTKVKRDAVVYKMHGDVEHPSEAVLIKDDYEKYSIKMDPYIKALSGDLVSKTFLFVGFSFTDPNLDYILSRVRSAYERDQRRHYCLIKKEERRPDELEADFEYRVRKQELFISDLSRFNIKTIVLNNYNEITEILQRIENNIKTKTVFLSGSAVEYNHWETEHAEQFIHQLSKELIRKDFNIVSGFGLGVGSFVINGVLEELYMNQGTIDDDRLILRPFPQGKKGEEQWDKYRRDMITRTGVSIFLYGNKIDKGQVVKAKGVQSEFNISFEQNNYVVPVGATGYIAKDLWNKVNEEFETYYPGADARMKKLFGELNNEALSIEELINTIIEFVEILSN

Molecular target: Thoeris anti-defense 1 (Tad1) from B. subtilis phage SBSphiJ7, C-terminal 8xHis-tag (Bacillus subtilis phage SBSphiJ7)
Test: pull-down

Row | Binder | binding
1 | B1 | no binding
2 | B2 | no binding
